# Test results from article PMC13462943.
# These are yes or no findings as the source states them, for the method shown. In cells and extracts the contact can be indirect. Here binding means that the protein was enriched with, or labelled near, the bait; the list need not be complete.
# T1: G9a, endogenous in iPSCs (human (endogenous in iPSCs)), Q96KQ7
# T1 chain: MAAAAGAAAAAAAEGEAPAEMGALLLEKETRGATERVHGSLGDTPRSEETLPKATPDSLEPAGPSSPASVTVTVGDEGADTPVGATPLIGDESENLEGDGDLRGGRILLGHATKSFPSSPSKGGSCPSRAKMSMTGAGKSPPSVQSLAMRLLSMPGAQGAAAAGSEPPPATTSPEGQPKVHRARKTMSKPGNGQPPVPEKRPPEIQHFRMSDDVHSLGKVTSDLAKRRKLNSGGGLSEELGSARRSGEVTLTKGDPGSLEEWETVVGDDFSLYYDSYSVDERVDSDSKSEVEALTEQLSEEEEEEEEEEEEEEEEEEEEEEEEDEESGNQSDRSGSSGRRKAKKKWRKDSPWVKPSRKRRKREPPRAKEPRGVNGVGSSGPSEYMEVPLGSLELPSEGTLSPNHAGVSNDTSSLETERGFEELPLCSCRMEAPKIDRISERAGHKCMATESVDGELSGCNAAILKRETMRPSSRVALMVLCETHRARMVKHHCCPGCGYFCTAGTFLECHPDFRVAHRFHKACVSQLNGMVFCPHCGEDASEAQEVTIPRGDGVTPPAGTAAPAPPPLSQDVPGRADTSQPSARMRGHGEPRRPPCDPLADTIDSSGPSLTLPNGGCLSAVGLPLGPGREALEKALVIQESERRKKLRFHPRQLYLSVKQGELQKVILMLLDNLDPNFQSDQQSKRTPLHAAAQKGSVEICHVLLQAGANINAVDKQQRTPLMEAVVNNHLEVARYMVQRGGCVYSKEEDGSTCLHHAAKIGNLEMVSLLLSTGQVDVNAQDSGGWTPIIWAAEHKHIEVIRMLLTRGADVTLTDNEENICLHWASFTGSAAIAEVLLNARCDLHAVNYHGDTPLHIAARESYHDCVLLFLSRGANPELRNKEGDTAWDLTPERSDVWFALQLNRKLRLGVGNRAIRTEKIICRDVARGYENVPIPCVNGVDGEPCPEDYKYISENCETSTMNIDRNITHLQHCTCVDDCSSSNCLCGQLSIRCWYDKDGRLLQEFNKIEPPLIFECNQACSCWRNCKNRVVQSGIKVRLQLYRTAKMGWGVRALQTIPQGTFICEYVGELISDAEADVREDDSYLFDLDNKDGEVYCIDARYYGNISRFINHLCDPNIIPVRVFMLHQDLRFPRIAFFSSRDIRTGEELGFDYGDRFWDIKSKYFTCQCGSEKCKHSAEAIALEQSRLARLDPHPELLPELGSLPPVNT
# B1: GLP, endogenous in iPSCs, Q9H9B1-1 1-1298 (protein)
# chain: MAAADAEAVPARGEPQQDCCVKTELLGEETPMAADEGSAEKQAGEAHMAADGETNGSCENSDASSHANAAKHTQDSARVNPQDGTNTLTRIAENGVSERDSEAAKQNHVTADDFVQTSVIGSNGYILNKPALQAQPLRTTSTLASSLPGHAAKTLPGGAGKGRTPSAFPQTPAAPPATLGEGSADTEDRKLPAPGADVKVHRARKTMPKSVVGLHAASKDPREVREARDHKEPKEEINKNISDFGRQQLLPPFPSLHQSLPQNQCYMATTKSQTACLPFVLAAAVSRKKKRRMGTYSLVPKKKTKVLKQRTVIEMFKSITHSTVGSKGEKDLGASSLHVNGESLEMDSDEDDSEELEEDDGHGAEQAAAFPTEDSRTSKESMSEADRAQKMDGESEEEQESVDTGEEEEGGDESDLSSESSIKKKFLKRKGKTDSPWIKPARKRRRRSRKKPSGALGSESYKSSAGSAEQTAPGDSTGYMEVSLDSLDLRVKGILSSQAEGLANGPDVLETDGLQEVPLCSCRMETPKSREITTLANNQCMATESVDHELGRCTNSVVKYELMRPSNKAPLLVLCEDHRGRMVKHQCCPGCGYFCTAGNFMECQPESSISHRFHKDCASRVNNASYCPHCGEESSKAKEVTIAKADTTSTVTPVPGQEKGSALEGRADTTTGSAAGPPLSEDDKLQGAASHVPEGFDPTGPAGLGRPTPGLSQGPGKETLESALIALDSEKPKKLRFHPKQLYFSARQGELQKVLLMLVDGIDPNFKMEHQNKRSPLHAAAEAGHVDICHMLVQAGANIDTCSEDQRTPLMEAAENNHLEAVKYLIKAGALVDPKDAEGSTCLHLAAKKGHYEVVQYLLSNGQMDVNCQDDGGWTPMIWATEYKHVDLVKLLLSKGSDINIRDNEENICLHWAAFSGCVDIAEILLAAKCDLHAVNIHGDSPLHIAARENRYDCVVLFLSRDSDVTLKNKEGETPLQCASLNSQVWSALQMSKALQDSAPDRPSPVERIVSRDIARGYERIPIPCVNAVDSEPCPSNYKYVSQNCVTSPMNIDRNITHLQYCVCIDDCSSSNCMCGQLSMRCWYDKDGRLLPEFNMAEPPLIFECNHACSCWRNCRNRVVQNGLRARLQLYRTRDMGWGVRSLQDIPPGTFVCEYVGELISDSEADVREEDSYLFDLDNKDGEVYCIDARFYGNVSRFINHHCEPNLVPVRVFMAHQDLRFPRIAFFSTRLIEAGEQLGFDYGERFWDIKGKLFSCRCGSPKCRHSSAALAQRQASAAQEAQEDGLPDTSSAAAADPL
# Target: T1, G9a, endogenous in iPSCs (human …)
# Assay: co-IP + affinity purification with mass spectrometry; rabbit anti-G9a on Dynabeads Protein A; whole cell extracts (100 µg) of control and patients' iPSCs, 45 min at 4 °C; washes with 200 mM NaCl, 1.5 mM MgCl2, 20 mM EDTA; eluate read by western blot (G9a, GLP) and LC-MS/MS; anti-PFAS IgG as negative control
# Settings: remark: other sources report otherwise
binder,measurement,value
B1,binding,binds
